The supplement of paper PMC12297408
Counter-ions that a name gives are not always drawn. Most of the hits are listed elsewhere, so they are rarer here than in the full data.

System: Plasmodium falciparum NF54/iGP1_RE9H ulg8 stage V gametocytes
Experiment: gametocyte viability (luciferase signal relative to DMSO control) (% of DMSO control); higher = less gametocytocidal activity, active = 50 or less
Settings: exposure time: 72 h
Procedure, shortened: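 NF54/iGP1_RE9Hulg8 stage V gametocytes (day 12; ~2.5% gametocytemia, 3% hematocrit) in medium with 0.5% Albumax II were added to 96-well plates of nanolitre-spotted compounds (10 mM DMSO stocks), giving 10 µM or 1 µM, one well each. Plates were incubated 72 h at 37 °C. Then 90 µl was mixed with 10 µl D-luciferin (30 mg/ml) and luminescence was read on an IVIS Lumina II. Viability is relative to the mean of plate DMSO vehicle controls.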

CN1[C@@H]2CC[C@H]1C[C@@H](OC(=O)C(O)c1ccccc1)C2 (mixture of isomers) [Homatropine hydrobromide (R,S)]
gametocyte viability (concentration: 1 µM): inactive: 97.3
gametocyte viability (concentration: 10 µM): inactive: 104
